PubChem BioAssay AID504774 | Drosophila RNAi Screening Center, 2011
In all, the deposit lists about 23,000 reagents; this is a random part of those that have a named target and a result. 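Values are quantile-normalised luminescence on an arbitrary scale; higher means more cells surviving MMS.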 Names joined by + are all predicted targets of the reagent. Not all columns of the deposit are shown. No sequences are given here.

- Screen: 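Fly genes whose loss alters survival after alkylation damage to DNA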 (primary screen)
- Cell system: Drosophila Kc167 cells
- Reagent: long dsRNA against Drosophila genes, about 0.25 µg dsRNA per well
- Timing: about 6 days: 3 days knock-down, then 3 days with or without MMS
- Conditions: methyl methanesulphonate 0.004% (w/v) for 3 days after knock-down
- Measured: 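ATP-dependent luminescence as a measure of live cells in MMS-exposed wells, quantile normalised within each plate, with replicate values also given as a mean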
- Reading the numbers: mean viability with MMS: higher = more surviving cells after MMS

Mnn1 [DRSC03368]
- mean viability with MMS: 3.77e6

Galphaf [DRSC11171]
- mean viability with MMS: 3.67e6

CG13248 [DRSC11696]
- mean viability with MMS: 3.60e6

Mal-A2 [DRSC07460]
- mean viability with MMS: 3.65e6

CG9106 [DRSC20154]
- mean viability with MMS: 3.69e6

Arr1 [DRSC01867]
- mean viability with MMS: 3.47e6

Uqcc1 + CG9948 [DRSC09690]
- mean viability with MMS: 3.60e6

Tmem214 [DRSC02924]
- mean viability with MMS: 3.60e6

Tmem214 [DRSC02925]
- mean viability with MMS: 3.60e6

CG8915 [DRSC20119]
- mean viability with MMS: 3.71e6

CG33502 + CG32857 + CG32500 [DRSC20817]
- mean viability with MMS: 2.21e6

CG33502 + CG32857 + CG32500 [DRSC21038]
- mean viability with MMS: 3.54e6

twit [DRSC03210]
- mean viability with MMS: 3.63e6

Ctl1 [DRSC08303]
- mean viability with MMS: 3.40e6

2 successive entries already listed, for reference:
CG9106 [DRSC20154]
- mean viability with MMS: 3.69e6

Arr1 [DRSC01867]
- mean viability with MMS: 3.47e6
